Measurements reported in article PMC6375917 (2019).
Numbering of substitutions follows the chain as printed. No constants are given. Whether binding was seen depends on the method and setting. Binding seen in cells or lysates may run through a third protein. Some binding calls cover weakened binding; strength is not graded here. Where a sequence is shown, tags or fusion partners need not be part of it. One block for each binder: values may come before it.

Key:
Assay in all cases: pull-down; mitochondria from cells expressing His-tagged Tim50 versions solubilized with 1% digitonin, incubated with Ni-NTA agarose beads at 4 °C, eluted with Laemmli buffer with 300 mM imidazole; immunoblot with Tim50, Tim17 and Tim23 antibodies
[1] = molecular target: T1, His-tagged Tim50 mutant #1 (L202V,F237L,Y261S,V274E,Y299S) (yeast) (UniProt Q02776)
T1 sequence: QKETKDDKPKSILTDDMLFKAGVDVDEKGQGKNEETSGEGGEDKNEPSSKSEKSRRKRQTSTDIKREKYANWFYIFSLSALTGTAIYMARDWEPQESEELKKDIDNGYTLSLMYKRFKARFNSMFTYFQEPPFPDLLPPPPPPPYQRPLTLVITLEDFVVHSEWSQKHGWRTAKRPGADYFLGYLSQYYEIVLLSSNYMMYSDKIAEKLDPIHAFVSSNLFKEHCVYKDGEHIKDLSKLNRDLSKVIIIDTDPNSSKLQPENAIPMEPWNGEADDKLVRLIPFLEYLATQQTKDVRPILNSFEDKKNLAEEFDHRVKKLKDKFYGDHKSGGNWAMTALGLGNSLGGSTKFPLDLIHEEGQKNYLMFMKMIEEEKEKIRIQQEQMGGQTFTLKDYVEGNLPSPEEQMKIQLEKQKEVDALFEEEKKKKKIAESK

[2] = molecular target: T2, His-tagged Tim50 A221D/D337V (yeast) (UniProt Q02776)
T2 sequence: T1 sequence with V159L, A178D, L194F, S218Y, E231V, S256Y, D294V

[3] = molecular target: T3, His-tagged Tim50 N283Y/D293N (yeast) (UniProt Q02776)
T3 sequence: T1 sequence with V159L, L194F, S218Y, E231V, N240Y, D250N, S256Y

[4] = molecular target: T4, His-tagged Tim50 D278V/R339S (yeast) (UniProt Q02776)
T4 sequence: T1 sequence with V159L, L194F, S218Y, E231V, D235V, S256Y, R296S

[5] = molecular target: T5, His-tagged Tim50 L194H (yeast) (UniProt Q02776)
T5 sequence: T1 sequence with L151H, V159L, L194F, S218Y, E231V, S256Y

binding [1]: binds | binding [2]: binds | binding [3]: binds | binding [4]: binds | binding [5]: binds
B1: Tim17 (protein, UniProt P39515 1-158)
chain: MSADHSRDPCPIVILNDFGGAFAMGAIGGVVWHGIKGFRNSPLGERGSGAMSAIKARAPVLGGNFGVWGGLFSTFDCAVKAVRKREDPWNAIIAGFFTGGALAVRGGWRHTRNSSITCACLLGVIEGVGLMFQRYAAWQAKPMAPPLPEAPSSQPLQA

binding [1]: binds | binding [2]: binds | binding [3]: binds | binding [4]: binds | binding [5]: binds
B2: Tim23 (protein, UniProt P32897 1-222)
chain: MSWLFGDKTPTDDANAAVGGQDTTKPKELSLKQSLGFEPNINNIISGPGGMHVDTARLHPLAGLDKGVEYLDLEEEQLSSLEGSQGLIPSRGWTDDLCYGTGAVYLLGLGIGGFSGMMQGLQNIPPNSPGKLQLNTVLNHITKRGPFLGNNAGILALSYNIINSTIDALRGKHDTAGSIGAGALTGALFKSSKGLKPMGYSSAMVAAACAVWCSVKKRLLEK
